{"source": "PubChem BioAssay AID2685", "about": "(National Center for Advancing Translational Sciences (NCATS), 2010)", "note": "About 2,100 (0.66%) of roughly 320,000 compounds were called active. Inconclusive means that the source gave no clear call. Such entries were picked first, then a sample of the others. Calls come from the whole dose curve; as a rule, active = well fitted inhibition curve with a large enough effect in the signal ratio, with a control signal flat (not every such curve was filed as active); inconclusive = small, poorly fitted or top-dose-only effect, or effect the other way, or a change in a side signal; inactive = flat fitted curve, though single readings scatter; the % refers to the signal ratio. Where the call is inconclusive, the potency comes from a doubtful curve fit. % is set by controls: 0 for no effect and ±100 for the full control effect; potency is the fitted concentration of half-maximal effect.", "data": [{"assay": "qHTS Assay for Lipid Storage Modulators in Drosophila S3 Cells", "details": "BODIPY lipid droplet fluorescence, 18-24 h, cells fed with added oleic acid; lipid storage change, negative = inhibition: at 46.1 µM (top of the series) unless noted", "summary_of_the_method": "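Drosophila S3 cells loaded with oleic acid (400 uM, as added) and compounds at several concentrations; lipid droplets imaged by 488-nm laser-scanning cytometry, 500–530 nm intensity and object ratio to cell channel. Percent activity normalized to 20 uM Triacsin C.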", "values": [{"smiles": "CCOC(=O)C1(Cc2cccc(F)c2)CCN(C2CCOCC2)CC1", "lipid storage change, negative = inhibition": "inconclusive: -14.6%"}, {"smiles": "COc1ccc2cc(C(=O)NCCCN3CCCC3=O)[nH]c2c1", "lipid storage change, negative = inhibition": "inconclusive: -172%"}, {"smiles": "CCOc1ccc(N2C(=O)CC(N3CCN(C4CCc5ccccc5C4)CC3)C2=O)cc1", "note": "(configuration not stated)", "lipid storage change, negative = inhibition": "inconclusive: 41.5%"}, {"smiles": "O=C(NCc1ccco1)C(c1cccs1)N(Cc1ccccc1)C(=O)Cn1nnc2ccccc21", "note": "(configuration not stated)", "lipid storage change, negative = inhibition": "inconclusive: 16.9%"}, {"smiles": "O=C(O)CCNC(=O)c1cncc(Br)c1", "lipid storage change, negative = inhibition": "inconclusive: 0.129%"}, {"smiles": "CCOCCCNC(C(=O)Nc1ccc(OC)c(Cl)c1)c1ccccc1", "note": "(configuration not stated)", "lipid storage change, negative = inhibition": "inconclusive: 27.2%"}, {"smiles": "Cc1nnc(SCC(=O)NNC(=O)c2ccc(Cl)cc2)s1", "lipid storage change, negative = inhibition": "inconclusive: -14%"}, {"smiles": "Cn1c(=O)c2c(nc(N3CCOCC3)n2CCc2ccccc2)n(C)c1=O", "Potency": "inconclusive: 25.9 µM [activator, single point]"}, {"smiles": "CCOC(=O)c1cnc(SCc2ccccc2)nc1N", "lipid storage change, negative = inhibition": "inconclusive: 43.7%"}, {"smiles": "Cc1ccc(NC(=O)CSCC(=O)NCc2ccco2)cc1", "lipid storage change, negative = inhibition": "inconclusive"}, {"smiles": "CCOC(=O)c1c(N)sc(C(=O)N(CC)CC)c1C", "lipid storage change, negative = inhibition": "inconclusive: 11.5%"}, {"smiles": "CCN(CC)c1ccc(/C=N/NC(=O)c2ccc3nc[nH]c3c2)c(O)c1", "Potency": "inconclusive: 4.61 µM [falling, partial curve, poor fit]"}, {"smiles": "C/C(=N\\O)C(C)NC(=O)c1ccccc1", "note": "(configuration not stated)", "lipid storage change, negative = inhibition": "inconclusive: -24%"}, {"smiles": "Cc1cccc(CN2CCN(C(=O)CCc3nnc(C4CCCCC4)o3)CC2)c1", "Potency": "inconclusive: 0.461 µM [falling, single point]"}, {"smiles": "Cc1ccc(S/C(=N\\S(=O)(=O)c2ccc(Cl)cc2)c2ccccc2)cc1", "lipid storage change, negative = inhibition": "inconclusive: -7.07%"}, {"smiles": "CN(C)CCCN(Cc1ccccc1)C(=S)NCc1ccccc1", "lipid storage change, negative = inhibition": "inconclusive: 14.6%"}, {"smiles": "CCN(C(=O)CN1CCN(C)CC1)c1c(N)n(Cc2ccccc2)c(=O)[nH]c1=O", "Potency": "inconclusive: 1.84 µM [activator, partial curve]"}, {"smiles": "OC(COc1ccc(-c2ccccc2)cc1)CN1CCOCC1", "note": "(configuration not stated)", "Potency": "inconclusive: 1.64 µM [falling, partial curve]"}, {"smiles": "COCCCNc1nc2c(c(=O)[nH]c(=O)n2C)n1CCCc1ccccc1", "Potency": "inconclusive: 6.51 µM [activator, single point]"}, {"smiles": "O=C(NCc1cccc(C(F)(F)F)c1)C1CCC(=O)N(C2CCCCCC2)C1", "note": "(configuration not stated)", "lipid storage change, negative = inhibition": "inconclusive: 277%"}, {"smiles": "N#Cc1ccc(S(=O)(=O)NCC(=O)OCC(=O)N2CCCC2=O)cc1", "lipid storage change, negative = inhibition": "inconclusive: -3.56%"}, {"smiles": "Cc1ccc(S(=O)(=O)N2CCN(CC(O)COc3ccccc3)CC2)cc1", "note": "(configuration not stated)", "lipid storage change, negative = inhibition": "inconclusive: -100%"}, {"smiles": "CC(=O)NC1(C(F)(F)F)C(=O)Nc2c1c(=O)[nH]c(=O)n2Cc1ccco1", "note": "(configuration not stated)", "lipid storage change, negative = inhibition": "inconclusive: -123%"}, {"smiles": "NC(=O)CC(NC(=O)c1ccccc1)c1ccc(NC2CCCCCCC2)c([N+](=O)[O-])c1", "note": "(configuration not stated)", "lipid storage change, negative = inhibition": "inconclusive: -100%"}, {"smiles": "Fc1ccc(F)c(C2=NNC(=Nc3ccccc3F)SC2)c1", "lipid storage change, negative = inhibition": "inconclusive: 60.7%"}, {"smiles": "O=C(Cc1n[nH]c(=O)c2ccccc12)N1CCN(c2ccc(F)cc2)CC1", "lipid storage change, negative = inhibition": "inconclusive: 25.9%"}, {"smiles": "Nc1nc(N)nc(-c2cccc(Cl)c2Cl)n1", "lipid storage change, negative = inhibition": "inconclusive: 9.96%"}, {"smiles": "CCOCCCn1c(=S)[nH]c2cc(C(=O)NCC(OC)OC)ccc2c1=O", "lipid storage change, negative = inhibition": "inconclusive: 0.34%"}, {"smiles": "COCCNC(=O)CSc1nc2ccccc2c2nc(C)nn12", "lipid storage change, negative = inhibition": "inconclusive: -7.94%"}, {"smiles": "COCc1nnc(NC(=O)CC(c2ccccc2)c2ccccc2)s1", "lipid storage change, negative = inhibition": "inconclusive: -18.4%"}, {"smiles": "Cc1cc(NS(=O)(=O)c2ccc(NC(=O)CCCOc3ccccc3)cc2)no1", "lipid storage change, negative = inhibition": "inconclusive: -1.41%"}, {"smiles": "CCc1cccc(OCC(=O)Nc2ccccc2N2CCCC2)c1", "lipid storage change, negative = inhibition": "inactive"}, {"smiles": "CCCn1c(SCC(=O)NC2CC2)nnc1-c1cccs1", "lipid storage change, negative = inhibition": "inactive"}, {"smiles": "CC1CCCC(C)N1C(=O)COc1ccccc1F", "note": "(configuration not stated)", "Potency": "inconclusive: 29.1 µM [cytotoxic, single point]"}, {"smiles": "COC(=O)c1oc2ccccc2c1N", "lipid storage change, negative = inhibition": "inconclusive: 13.4%"}, {"smiles": "O=[N+]([O-])/C(C(Cl)=C(Cl)Cl)=C1\\Nc2ccccc2O1", "lipid storage change, negative = inhibition": "inconclusive: -29.8%"}, {"smiles": "CCOc1ccc(NC(=O)COC(=O)CCC(=O)c2cccs2)cc1", "Potency": "inconclusive: 18.4 µM [activator, single point]"}, {"smiles": "C/C(=N/NS(=O)(=O)c1ccc(Br)cc1)c1ccc(C)o1", "lipid storage change, negative = inhibition": "inconclusive: 5.33%"}, {"smiles": "CCOC(=O)c1c(NC(=O)CNCCO)sc(C)c1C", "lipid storage change, negative = inhibition": "inconclusive: 16.1%"}, {"smiles": "Cc1cnc([N+](=O)[O-])n1CCOC(=O)NC(=O)c1cccc(F)c1", "lipid storage change, negative = inhibition": "inconclusive: -11.7%"}, {"smiles": "COc1cc(-c2nc(CCNC(=O)c3ccco3)cs2)cc(OC)c1OC", "Potency": "active: 18.4 µM"}, {"smiles": "CCCCNC(=O)Nc1nnc(-c2ccc(OCC)cc2)o1", "Potency": "inconclusive: 14.6 µM [activator, partial curve]"}, {"smiles": "COc1ccc(-n2cccc2/C=C2\\C(=N)N3N=C(c4ccco4)SC3=NC2=O)cc1", "lipid storage change, negative = inhibition": "inactive"}, {"smiles": "CC(=O)Nc1cccc(C(=O)N/N=C/c2cccnc2)c1", "lipid storage change, negative = inhibition": "inconclusive: 70.5%"}, {"smiles": "COc1ccc(-c2ccc(N(C)C)cc2)cc1[C@H]1[C@H]2C=CC[C@@H](C)[C@@H]2C(=O)N1Cc1ccccc1", "lipid storage change, negative = inhibition": "inconclusive: 8.86%"}, {"smiles": "COc1ccccc1NC(=O)C1CC(=O)OC1c1ccccc1", "note": "(configuration not stated)", "lipid storage change, negative = inhibition": "inconclusive: 0.34%"}, {"smiles": "O=C(O)C1CCCN(S(=O)(=O)Cc2ccccc2)C1", "note": "(configuration not stated)", "lipid storage change, negative = inhibition": "inconclusive: -21.4%"}, {"smiles": "COCCCn1c(SCC(=O)Nc2ccccc2F)nnc1-c1ccoc1C", "lipid storage change, negative = inhibition": "inconclusive: 128%"}, {"smiles": "CC(C)OCCCNC(=O)c1ccc2c(c1)S(=O)(=O)c1ccccc1C2=O", "lipid storage change, negative = inhibition": "inconclusive: -100%"}, {"smiles": "Fc1ccccc1/C=C1\\CCCC2=C1NC(=S)NC2c1ccccc1F", "note": "(configuration not stated)", "lipid storage change, negative = inhibition": "inconclusive: 11.2% [at 9.22 µM]"}, {"smiles": "Cc1ccccc1CSCC(=O)NCc1ccco1", "lipid storage change, negative = inhibition": "inconclusive: 1.28%"}, {"smiles": "NC(=O)CSc1nnc(COc2ccccc2)n1CCc1ccccc1", "lipid storage change, negative = inhibition": "inconclusive: 20.1%"}, {"smiles": "Cc1ccc2nc3sc(-c4nnc(-c5ccccc5[N+](=O)[O-])o4)c(N)c3cc2c1", "lipid storage change, negative = inhibition": "inactive"}, {"smiles": "O=C(O)Cc1ccc(NC(=O)C2CCCCC2C(=O)O)cc1", "note": "(configuration not stated)", "lipid storage change, negative = inhibition": "inconclusive: -1.42%"}, {"smiles": "COc1ccc(-c2csc(N3CCN(c4cc(C)nc5ccccc45)CC3)n2)cc1OC", "lipid storage change, negative = inhibition": "inconclusive: -16.8%"}, {"smiles": "CC1CCN(c2c([N+](=O)[O-])c(=O)n(-c3ccccc3)c3ccccc23)CC1", "lipid storage change, negative = inhibition": "inconclusive: -9.88%"}, {"smiles": "O=C1OC(/C(=C\\Nc2ccc(F)cc2F)[N+](=O)[O-])c2ccccc21", "note": "(configuration not stated)", "lipid storage change, negative = inhibition": "inconclusive: -21%"}, {"smiles": "Cc1nn(C)c(C(=O)NC(=S)Nc2ccccc2O)c1Cl", "Potency": "inconclusive: 11.6 µM [falling, partial curve]"}, {"smiles": "CCn1cc(CN2CCN(C)C(CCO)C2)c2ccccc21", "note": "(configuration not stated)", "lipid storage change, negative = inhibition": "inconclusive: 16.4%"}, {"smiles": "Cc1cccc(C)c1NC(=O)N1CCC(n2c(=O)[nH]c3ccccc32)CC1", "Potency": "inconclusive: 0.206 µM [activator, full curve, poor fit]"}, {"smiles": "COCC(C)NCc1ccc(C)cc1C", "note": "(configuration not stated)", "lipid storage change, negative = inhibition": "inconclusive: 2.98%"}, {"smiles": "CCOc1ccccc1C(=O)NC1CC2CCCC(C1)N2Cc1nnnn1Cc1ccco1", "note": "(configuration not stated)", "lipid storage change, negative = inhibition": "inconclusive: 38.5%"}, {"smiles": "Fc1ccccc1Cc1noc(CN2CCC(OCc3cccnc3)CC2)n1", "lipid storage change, negative = inhibition": "inconclusive: -16.4%"}, {"smiles": "COC(=O)C1C(O)=C(C(C)=N)C(=O)CC1(C)C", "note": "(configuration not stated)", "lipid storage change, negative = inhibition": "inconclusive: -31.5%"}, {"smiles": "Cc1c(Cl)cccc1NC(=S)N1CCN(S(=O)(=O)c2cccs2)CC1", "lipid storage change, negative = inhibition": "inconclusive: 1.68%"}, {"smiles": "O=C(Cn1ncc2c([nH]c3ccccc32)c1=O)Nc1cccnc1", "Potency": "inconclusive: 0.103 µM [falling, full curve, poor fit]"}, {"smiles": "Cc1ccc(-c2ccc(/C=N/NC(=S)Nc3ccccc3)o2)cc1[N+](=O)[O-]", "Potency": "inconclusive: 0.259 µM [activator, partial curve, poor fit]"}, {"smiles": "O=C(CCC(=O)N1CCOc2ccc(Cl)cc21)N1CCN(c2ccccn2)CC1", "lipid storage change, negative = inhibition": "inconclusive: -39.3%"}, {"smiles": "O=C(CCCn1c(=S)[nH]c2ccc(Br)cc2c1=O)N1CCN(c2ccccn2)CC1", "Potency": "inconclusive: 29.1 µM [falling, single point]"}, {"smiles": "CCC(C)c1ccc(C(C)NC(=S)NC2CCCCC2)cc1", "note": "(configuration not stated)", "lipid storage change, negative = inhibition": "inconclusive: -43%"}, {"smiles": "Cn1c2c(c3ccccc31)CCN1CCC[C@]21c1ccccc1", "lipid storage change, negative = inhibition": "inconclusive: -17%"}, {"smiles": "CCc1ccc(OCC(=O)NC(NC(=S)Nc2ccccc2C)C(Cl)(Cl)Cl)cc1", "note": "(configuration not stated)", "Potency": "inconclusive: 18.4 µM [falling, single point]"}, {"smiles": "COCc1cc(CNC(=O)C2CCC(=O)N(Cc3ccccc3F)C2)[nH]n1", "note": "(configuration not stated)", "lipid storage change, negative = inhibition": "inconclusive: 31.6%"}, {"smiles": "NC(=S)N/N=C/c1ccc(-c2cc(Cl)c(Cl)cc2Cl)o1", "lipid storage change, negative = inhibition": "inconclusive: -1.09%"}, {"smiles": "COCCn1c(-c2ccccc2)cnc1SCC(=O)Nc1cccc2ccccc12", "Potency": "inconclusive: 13 µM [falling, single point]"}, {"smiles": "O=C(C1CCCN(CCCc2ccccc2)C1)N1CCCCC1", "note": "(configuration not stated)", "Potency": "inconclusive: 6.51 µM [falling, single point]"}, {"smiles": "O=C(NC(=S)Nc1ccc2oc(-c3cccnc3)nc2c1)c1cccc(Cl)c1", "lipid storage change, negative = inhibition": "inconclusive: 31.6%"}, {"smiles": "CC(=O)c1cccc(NC(=O)CN(Cc2ccccc2)S(C)(=O)=O)c1", "lipid storage change, negative = inhibition": "inconclusive: -3.74%"}, {"smiles": "S=c1[nH]nc(-c2ccccn2)n1/N=C/c1ccc(Cl)c(Cl)c1", "lipid storage change, negative = inhibition": "inconclusive: 6.4%"}, {"smiles": "Cc1cc(C)cc(NC(=O)N2CCCN(Cc3c(F)cccc3Cl)CC2)c1", "lipid storage change, negative = inhibition": "inconclusive: -31.1%"}, {"smiles": "CC(C)C(=O)Nc1ccc(S(=O)(=O)N2CCC(c3nc4ccccc4[nH]3)CC2)cc1", "Potency": "inconclusive: 6.51 µM [falling, single point]"}, {"smiles": "Nn1c(Cc2cccc3ccccc23)nnc1SCC(=O)N1CC(=O)Nc2ccccc21", "Potency": "inconclusive: 9.2 µM [activator, partial curve]"}]}]}
